For two substances, binding results are on record in publication doi:10.1101/2023.09.28.559965.

Amino acid sequences for entries named in this document (tags omitted).
UniProt P15924: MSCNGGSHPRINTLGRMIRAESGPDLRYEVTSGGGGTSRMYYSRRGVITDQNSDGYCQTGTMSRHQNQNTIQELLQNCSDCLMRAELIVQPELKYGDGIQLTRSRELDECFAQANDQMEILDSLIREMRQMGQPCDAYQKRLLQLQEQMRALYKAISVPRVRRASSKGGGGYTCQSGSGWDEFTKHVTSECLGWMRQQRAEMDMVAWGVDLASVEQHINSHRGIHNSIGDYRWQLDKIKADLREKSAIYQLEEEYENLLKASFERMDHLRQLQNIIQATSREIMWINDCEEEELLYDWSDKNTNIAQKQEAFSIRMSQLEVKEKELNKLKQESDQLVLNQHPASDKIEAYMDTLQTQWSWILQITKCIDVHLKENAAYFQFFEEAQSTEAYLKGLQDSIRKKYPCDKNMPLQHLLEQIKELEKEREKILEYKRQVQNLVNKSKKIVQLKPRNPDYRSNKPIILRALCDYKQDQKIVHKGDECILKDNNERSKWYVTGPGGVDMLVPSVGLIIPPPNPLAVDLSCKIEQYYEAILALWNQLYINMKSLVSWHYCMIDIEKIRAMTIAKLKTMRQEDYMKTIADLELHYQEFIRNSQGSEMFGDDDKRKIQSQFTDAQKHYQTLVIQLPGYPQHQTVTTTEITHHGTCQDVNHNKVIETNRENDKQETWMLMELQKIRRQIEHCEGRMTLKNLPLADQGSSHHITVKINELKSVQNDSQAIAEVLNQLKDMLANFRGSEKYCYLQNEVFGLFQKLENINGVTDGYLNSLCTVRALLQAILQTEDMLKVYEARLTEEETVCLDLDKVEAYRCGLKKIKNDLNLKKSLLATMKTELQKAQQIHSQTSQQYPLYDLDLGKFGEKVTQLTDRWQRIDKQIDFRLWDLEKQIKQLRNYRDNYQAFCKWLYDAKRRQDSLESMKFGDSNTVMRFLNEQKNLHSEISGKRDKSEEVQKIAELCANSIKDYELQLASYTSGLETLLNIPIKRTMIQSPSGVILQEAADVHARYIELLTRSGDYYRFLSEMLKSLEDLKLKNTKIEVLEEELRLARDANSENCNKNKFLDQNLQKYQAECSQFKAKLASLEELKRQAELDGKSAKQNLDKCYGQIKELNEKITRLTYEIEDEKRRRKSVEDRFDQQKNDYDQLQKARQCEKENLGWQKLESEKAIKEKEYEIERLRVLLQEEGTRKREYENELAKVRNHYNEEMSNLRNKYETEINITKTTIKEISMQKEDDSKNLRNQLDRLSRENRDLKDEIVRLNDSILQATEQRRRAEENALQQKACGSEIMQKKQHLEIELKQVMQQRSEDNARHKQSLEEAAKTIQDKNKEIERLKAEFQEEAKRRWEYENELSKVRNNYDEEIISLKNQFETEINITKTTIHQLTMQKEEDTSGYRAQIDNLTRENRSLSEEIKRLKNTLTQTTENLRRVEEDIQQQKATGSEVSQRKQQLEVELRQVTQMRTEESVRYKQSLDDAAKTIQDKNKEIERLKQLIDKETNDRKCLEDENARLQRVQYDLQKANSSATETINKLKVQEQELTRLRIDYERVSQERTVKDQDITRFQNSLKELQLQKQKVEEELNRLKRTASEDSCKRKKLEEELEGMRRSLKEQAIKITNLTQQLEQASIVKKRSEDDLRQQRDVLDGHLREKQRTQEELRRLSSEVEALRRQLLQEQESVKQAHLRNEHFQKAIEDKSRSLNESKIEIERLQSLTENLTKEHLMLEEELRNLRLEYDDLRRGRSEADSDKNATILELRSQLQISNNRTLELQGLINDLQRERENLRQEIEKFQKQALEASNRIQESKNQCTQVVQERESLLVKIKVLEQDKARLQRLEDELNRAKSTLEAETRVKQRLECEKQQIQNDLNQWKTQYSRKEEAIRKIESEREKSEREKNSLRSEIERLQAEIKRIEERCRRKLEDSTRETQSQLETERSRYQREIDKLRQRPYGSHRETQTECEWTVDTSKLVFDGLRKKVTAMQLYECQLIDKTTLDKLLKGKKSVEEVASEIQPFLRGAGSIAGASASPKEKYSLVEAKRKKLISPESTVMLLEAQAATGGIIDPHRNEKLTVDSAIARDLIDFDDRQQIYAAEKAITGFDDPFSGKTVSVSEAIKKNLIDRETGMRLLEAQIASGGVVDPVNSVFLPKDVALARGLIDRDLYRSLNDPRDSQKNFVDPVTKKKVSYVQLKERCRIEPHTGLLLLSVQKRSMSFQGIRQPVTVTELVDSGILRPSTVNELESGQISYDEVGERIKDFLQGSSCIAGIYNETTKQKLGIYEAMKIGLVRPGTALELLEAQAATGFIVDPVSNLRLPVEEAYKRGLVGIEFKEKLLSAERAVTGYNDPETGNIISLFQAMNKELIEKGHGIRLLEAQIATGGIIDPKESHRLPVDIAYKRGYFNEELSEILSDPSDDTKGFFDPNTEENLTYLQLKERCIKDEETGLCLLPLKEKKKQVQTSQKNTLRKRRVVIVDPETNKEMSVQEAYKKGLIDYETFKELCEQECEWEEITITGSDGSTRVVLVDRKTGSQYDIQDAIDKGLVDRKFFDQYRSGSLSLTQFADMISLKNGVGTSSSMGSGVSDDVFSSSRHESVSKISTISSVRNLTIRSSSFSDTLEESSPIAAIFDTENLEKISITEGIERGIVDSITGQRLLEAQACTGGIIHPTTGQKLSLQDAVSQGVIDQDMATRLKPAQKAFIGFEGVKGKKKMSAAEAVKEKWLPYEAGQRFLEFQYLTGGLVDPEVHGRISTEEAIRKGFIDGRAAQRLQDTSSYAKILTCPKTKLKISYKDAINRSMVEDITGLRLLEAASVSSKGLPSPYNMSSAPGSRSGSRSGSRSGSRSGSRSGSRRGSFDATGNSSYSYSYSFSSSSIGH
UniProt P08670: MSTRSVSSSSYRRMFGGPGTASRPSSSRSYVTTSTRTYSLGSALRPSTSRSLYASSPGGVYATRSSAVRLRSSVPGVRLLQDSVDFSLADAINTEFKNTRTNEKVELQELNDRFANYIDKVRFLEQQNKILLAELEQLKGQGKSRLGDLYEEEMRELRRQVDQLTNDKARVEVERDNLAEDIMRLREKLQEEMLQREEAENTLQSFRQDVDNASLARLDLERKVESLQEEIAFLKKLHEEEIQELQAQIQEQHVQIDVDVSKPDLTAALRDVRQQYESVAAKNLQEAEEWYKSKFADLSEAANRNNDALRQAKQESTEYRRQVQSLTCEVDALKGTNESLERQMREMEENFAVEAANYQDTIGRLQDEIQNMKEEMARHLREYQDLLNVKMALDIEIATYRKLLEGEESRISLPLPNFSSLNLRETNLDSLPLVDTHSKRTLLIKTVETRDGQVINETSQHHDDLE

Assay [1] deals with HER2 with eGFP tag, doxycycline-induced in MCF10A-Teti-HER2_GFP cells (UniProt P04626). Nature of the assay: affinity purification with mass spectrometry.
For assay [2], the target named is HER2, endogenous in SKBR3 cells (human (endogenous in SKBR3)) (UniProt P04626). The assay can be described thus: affinity purification with mass spectrometry.

No constants are given. Whether binding was seen depends on the method and setting. In cells and extracts the contact can be indirect. A yes stands for co-enrichment or nearness to the bait. Other partners may have been found.

In the case of “Desmoplakin (from UniProt P15924 1-2871)”, the binding result in assay [1] and in assay [2] was “binds” throughout.

On to Vimentin (from UniProt P08670 1-466), for which the binding result in assay [1] and in assay [2] was “binds” in each case.
